Source: patent publication US20160305952A1
These are yes or no findings as the source states them, for the method shown. Some binding calls cover weakened binding; strength is not graded here.

Protein sequences, listed by entry. Tags and fused reporters are not part of them.
UniProt P19821: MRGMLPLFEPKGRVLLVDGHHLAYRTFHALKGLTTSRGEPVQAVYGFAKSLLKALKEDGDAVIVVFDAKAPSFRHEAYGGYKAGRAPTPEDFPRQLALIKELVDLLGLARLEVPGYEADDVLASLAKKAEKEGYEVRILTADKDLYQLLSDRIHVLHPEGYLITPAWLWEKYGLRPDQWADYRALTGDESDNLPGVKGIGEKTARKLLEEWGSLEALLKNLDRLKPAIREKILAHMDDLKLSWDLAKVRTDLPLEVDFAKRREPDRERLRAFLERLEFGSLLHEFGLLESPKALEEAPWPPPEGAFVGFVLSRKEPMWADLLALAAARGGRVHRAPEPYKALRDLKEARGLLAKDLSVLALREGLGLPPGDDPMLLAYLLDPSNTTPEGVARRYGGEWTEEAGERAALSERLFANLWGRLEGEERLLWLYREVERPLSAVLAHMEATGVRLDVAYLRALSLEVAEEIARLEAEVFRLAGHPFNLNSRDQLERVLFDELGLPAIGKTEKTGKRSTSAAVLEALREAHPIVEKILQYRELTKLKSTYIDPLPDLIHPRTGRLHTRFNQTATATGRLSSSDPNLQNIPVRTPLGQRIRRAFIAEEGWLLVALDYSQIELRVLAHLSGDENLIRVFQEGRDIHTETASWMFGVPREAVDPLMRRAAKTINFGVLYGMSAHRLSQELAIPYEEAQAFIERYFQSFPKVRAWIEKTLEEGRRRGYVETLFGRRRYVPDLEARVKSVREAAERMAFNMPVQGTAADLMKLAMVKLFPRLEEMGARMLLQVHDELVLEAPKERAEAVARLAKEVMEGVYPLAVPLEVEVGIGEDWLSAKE

Key:
Taq polymerase = Taq polymerase (UniProt P19821); test: peptide array, extension library, 3Z linker
streptavidin [1] = target: streptavidin (UniProt P22629); test: SPR
streptavidin [2] = target: streptavidin (UniProt P22629); test: SPR, Biacore X100, streptavidin on CM5 chip, peptide in solution
Cy5-labeled streptavidin [3] = target: Cy5-labeled streptavidin (UniProt P22629); test: peptide array, 5-mer library, 3Z linker, Cy5-streptavidin
Cy5-labeled streptavidin [4] = target: Cy5-labeled streptavidin (UniProt P22629); test: peptide array, 5-mer library, 1Z linker, Cy5-streptavidin
Cy5-labeled streptavidin [5] = target: Cy5-labeled streptavidin (UniProt P22629); test: peptide array, 5-mer library, no linker, Cy5-streptavidin
Cy5-labeled streptavidin [6] = target: Cy5-labeled streptavidin (UniProt P22629); test: peptide array, 5-mer library, 1J linker, Cy5-streptavidin
Cy5-labeled streptavidin [7] = target: Cy5-labeled streptavidin (UniProt P22629); test: peptide array, extension library XXFDEWLXX, 3Z linker
Cy5-labeled streptavidin [8] = target: Cy5-labeled streptavidin (UniProt P22629); test: peptide array, extension library XXFDEWLXX, no linker
Cy5-labeled streptavidin [9] = target: Cy5-labeled streptavidin (UniProt P22629); test: peptide array, extension library XXPAWAHXX, no linker
Cy5-labeled streptavidin [10] = target: Cy5-labeled streptavidin (UniProt P22629); test: peptide array, extension library XXPAWAHXX, 3Z linker

B1: … (peptide)
peptide: QQHEFSFAQ
Question: With B1 as the binder, how does the binding (Taq polymerase) read?
Answer: binds

B2: NH2-…-COOH (peptide)
peptide: WTHPQFEQK
Question: With B2 as the binder, how does the binding (streptavidin [1]) read?
Answer: binds

B3: NH2-…-amide (peptide)
peptide: WTHPQFEQPKA
modifications: C-terminal amide
Question: For B3, which binding (streptavidin [1]) is on record?
Answer: binds

B4: NH2-…-amide (peptide)
peptide: EWVHPQFEQKAK
modifications: C-terminal amide
Question: For B4, which binding (streptavidin [1]) is on record?
Answer: binds

B5: NH2-…-amide (peptide)
peptide: GNSFDDWLASKG
modifications: C-terminal amide
Question: B5 was tested. Which binding (streptavidin [2]) did it give?
Answer: binds

Question: And the binding (streptavidin [1])?
Answer: binds

B6: NH2-…-amide (peptide)
peptide: AFPDYLAEYHGG
modifications: C-terminal amide
Question: B6 was tested. Which binding (streptavidin [1]) did it give?
Answer: binds

B7: LAEYH (peptide)
peptide: LAEYH
Question: How did the binding (Cy5-labeled streptavidin [3]) turn out when B7 was run?
Answer: binds

B8: NYPDW (peptide)
peptide: NYPDW
Question: With B8 as the binder, how does the binding (Cy5-labeled streptavidin [3]) read?
Answer: binds

B9: DPFGW (peptide)
peptide: DPFGW
Question: Which binding (Cy5-labeled streptavidin [4]) does the source give for B9 here?
Answer: binds

Question: And the binding (Cy5-labeled streptavidin [3])?
Answer: binds

B10: SWDKW (peptide)
peptide: SWDKW
Question: How did the binding (Cy5-labeled streptavidin [3]) turn out when B10 was run?
Answer: binds

B11: LGEYH (peptide)
peptide: LGEYH
Question: B11 was tested. Which binding (Cy5-labeled streptavidin [4]) did it give?
Answer: binds

B12: PAWAH (peptide)
peptide: PAWAH
Question: Which binding (Cy5-labeled streptavidin [4]) does the source give for B12 here?
Answer: binds

B13: FDEWL (peptide)
peptide: FDEWL
Question: How did the binding (Cy5-labeled streptavidin [4]) turn out when B13 was run?
Answer: binds

B14: LRFDT (peptide)
peptide: LRFDT
Question: For B14, which binding (Cy5-labeled streptavidin [5]) is on record?
Answer: binds

B15: NAWAH (peptide)
peptide: NAWAH
Question: With B15 as the binder, how does the binding (Cy5-labeled streptavidin [5]) read?
Answer: binds

B16: WRGWL (peptide)
peptide: WRGWL
Question: Which binding (Cy5-labeled streptavidin [5]) does the source give for B16 here?
Answer: binds

B17: YGPYK (peptide)
peptide: YGPYK
Question: Which binding (Cy5-labeled streptavidin [6]) does the source give for B17 here?
Answer: binds

B18: FYGKY (peptide)
peptide: FYGKY
Question: Which binding (Cy5-labeled streptavidin [6]) does the source give for B18 here?
Answer: binds

B19: … (peptide)
peptide: NSFDEWLNQ
Question: Which results are given for B19?
Answer: binding (Cy5-labeled streptavidin [7]): binds; binding (Cy5-labeled streptavidin [8]): binds

B20: … (peptide)
peptide: NSFDEWLQK
Question: How did the binding (Cy5-labeled streptavidin [7]) turn out when B20 was run?
Answer: binds

B21: … (peptide)
peptide: NSFDEWLAN
Question: For B21, which binding (Cy5-labeled streptavidin [7]) is on record?
Answer: binds

B22: … (peptide)
peptide: DSFDEWLAG
Question: Which binding (Cy5-labeled streptavidin [8]) does the source give for B22 here?
Answer: binds

B23: … (peptide)
peptide: NSFDEWLAG
Question: For B23, which binding (Cy5-labeled streptavidin [8]) is on record?
Answer: binds

B24: … (peptide)
peptide: PAPAWAHGG
Question: Which results are given for B24?
Answer: binding (Cy5-labeled streptavidin [9]): binds; binding (Cy5-labeled streptavidin [10]): binds

B25: … (peptide)
peptide: RAPAWAHGG
Question: B25 was tested. Which binding (Cy5-labeled streptavidin [10]) did it give?
Answer: binds

B26: … (peptide)
peptide: PVPAWAHGG
Question: For B26, which binding (Cy5-labeled streptavidin [10]) is on record?
Answer: binds

B27: … (peptide)
peptide: YGPAWAHGG
Question: Which binding (Cy5-labeled streptavidin [9]) does the source give for B27 here?
Answer: binds

B28: … (peptide)
peptide: FAPAWAHGG
Question: Which binding (Cy5-labeled streptavidin [9]) does the source give for B28 here?
Answer: binds
